# In all, about 320,000 compounds went through this assay and about 620 (0.19%) were called active. The inconclusive results got no clear call from the source; some entries with a clear call stand among them for comparison. Cut-off read from the data, not from the text of the source: active = activation above about 80%; inconclusive = between about 30% and that limit; inactive = weaker than that.
# Chains of the proteins cited; added tags and fusions are not shown.
# UniProt Q8NER1, whole entry, looked up: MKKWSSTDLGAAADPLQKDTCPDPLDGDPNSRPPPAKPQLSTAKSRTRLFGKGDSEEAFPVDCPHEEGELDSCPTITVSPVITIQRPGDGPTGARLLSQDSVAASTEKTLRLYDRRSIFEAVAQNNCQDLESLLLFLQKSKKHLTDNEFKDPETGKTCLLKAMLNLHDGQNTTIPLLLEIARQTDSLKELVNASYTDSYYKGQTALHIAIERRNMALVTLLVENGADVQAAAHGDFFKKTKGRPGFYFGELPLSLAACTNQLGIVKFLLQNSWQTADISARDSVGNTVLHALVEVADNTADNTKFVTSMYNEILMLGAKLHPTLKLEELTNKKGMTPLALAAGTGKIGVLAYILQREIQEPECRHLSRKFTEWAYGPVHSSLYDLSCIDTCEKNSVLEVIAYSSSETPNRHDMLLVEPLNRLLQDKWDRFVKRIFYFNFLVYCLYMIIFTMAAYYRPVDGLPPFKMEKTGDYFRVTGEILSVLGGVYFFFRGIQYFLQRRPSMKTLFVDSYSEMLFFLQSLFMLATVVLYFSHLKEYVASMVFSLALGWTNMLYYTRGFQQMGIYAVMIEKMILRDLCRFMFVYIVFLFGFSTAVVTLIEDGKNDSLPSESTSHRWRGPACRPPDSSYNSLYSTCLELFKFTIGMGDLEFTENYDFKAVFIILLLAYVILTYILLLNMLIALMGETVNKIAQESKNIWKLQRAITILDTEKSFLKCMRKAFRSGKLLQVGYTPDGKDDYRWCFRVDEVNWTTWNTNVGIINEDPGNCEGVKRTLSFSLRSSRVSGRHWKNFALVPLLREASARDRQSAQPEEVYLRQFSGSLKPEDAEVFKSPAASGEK
# Biological target: Transient receptor potential cation channel subfamily V member 1 (Homo sapiens) (UniProt Q8NER1)
# Experiment: HTS Assay for Compounds that Act as Agonists of the Vanilloid Receptor 1; note: 0% is about no effect
# Details: TRPV1-expressing cells, Fluo-8 calcium influx, agonist mode; at 8.33 µM, stronger effect = higher value
# In short: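 Cells expressing TRPV1 were dye-loaded with Fluo-8 and read kinetically: 10 s baseline, 3 min after compound (agonist portion), then 2 min after EC20 capsaicin (allosteric enhancer portion). Calcium-bound dye fluorescence at 480/520 nm.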
row,SMILES,activation
1,CCC1(CC)Cc2ccccc2-c2nc(NCCO)[nH]c(=O)c21,inconclusive: 37.9%
2,CC(NC(=S)NCc1ccccc1)C12CC3CC(CC(C3)C1)C2 (centres undefined),inconclusive: 68.7%
3,Cc1ccc(OCC(=O)N2CCN(C(=O)c3ccco3)CC2)cc1,inactive: -1.38%
4,O=C(Cc1ccccc1)NCc1ccncc1,inconclusive: 32.6%
5,Oc1ccc(Br)cc1CNc1ccccn1,inconclusive: 40.8%
6,Cc1cccc2sc(NC(=O)Cn3c(C)csc3=O)nc12,inconclusive: 35.8%
7,COc1ccccc1/C=N/NC(=O)c1csc(C)c1C,inactive: 1.95%
8,CSCCNC(=O)c1ccc(C(C)(C)C)cc1,inconclusive: 71.7%
9,CCOc1c(Cl)cc(/C=C/C(=O)N(CC)CC(=O)NCc2cccs2)cc1OC,inconclusive: 34.3%
10,CCC(C)N(CCNC(=O)c1ccc2c(c1)NC(=O)c1ccccc1S2)C1CCCCC1 (centres undefined),inactive: 2.78%
11,CCCn1nc(NC(=O)c2ccco2)c2cc3ccc(C)cc3nc21,inconclusive: 47.7%
12,COc1ccc(C(=O)Nc2nc3ccccc3s2)cc1,active: 96.5%
13,COc1ccc(-c2cc(C(F)F)nc(-n3nc(C)cc3C)n2)cc1,inactive: 1.07%
14,CCOC(=O)N1CCN(C(=S)NC(=O)c2ccc(Br)cc2)CC1,inactive: -2.68%
15,C=CCn1c(SCC(=O)N(CC)C2CCS(=O)(=O)C2)nc2cc(C(=O)O)ccc2c1=O (centres undefined),inactive: -5.27%
16,NS(=O)(=O)c1ccc(NC(=O)C2COc3ccccc3O2)cc1 (centres undefined),inconclusive: 32.9%
17,Cc1ccc(SCC(=O)OCn2nnc3ccccc3c2=O)cc1C,inactive: 20.5%
18,Cc1cccc(N2CCN(C(=O)CN(C)S(=O)(=O)c3ccc4c(c3)CCC(=O)N4)CC2)c1C,inconclusive: 32.6%
19,COc1ccc(/C=C/C(=O)NCC(=O)N/N=C(/C)c2ccco2)cc1,inactive: -0.516%
20,O=S(=O)(Nc1nc2ccccc2nc1Nc1ccc2c(c1)OCO2)c1ccccc1,inactive: -5.21%
21,Cc1ccc(CNC(=O)N2CCN(S(=O)(=O)c3ccccc3)CC2)cc1,inconclusive: 64.6%
22,CC(C)(C)C(=O)N1CCN(c2nc3ccc(Br)cc3s2)CC1,inconclusive: 34.2%
23,COC(=O)c1nn(-c2cccc(C)c2)c2nnc(Cc3ccc(C)cc3)c(=O)n12,inconclusive: 62.8%
24,Cc1ccc(C(=O)N/C(=C\c2ccccc2)C(=O)NCCCn2ccnc2)cc1,inactive: -1.31%

# Look-ups from the entries so far.
# Entry of O=S(=O)(Nc1nc2ccccc2nc1Nc1ccc2c(c1)OCO2)c1ccccc1 under activation: inactive: -5.21%
# Entry of CSCCNC(=O)c1ccc(C(C)(C)C)cc1 under activation: inconclusive: 71.7%
# Entry of CC(NC(=S)NCc1ccccc1)C12CC3CC(CC(C3)C1)C2 (centres undefined) under activation: inconclusive: 68.7%
# Entry of CCC(C)N(CCNC(=O)c1ccc2c(c1)NC(=O)c1ccccc1S2)C1CCCCC1 (centres undefined) under activation: inactive: 2.78%
# Entry of Cc1ccc(CNC(=O)N2CCN(S(=O)(=O)c3ccccc3)CC2)cc1 under activation: inconclusive: 64.6%

# (list continues)

row,SMILES,activation
1,Cc1cc(C(=O)CCC(=O)NC(C)c2ccc(S(N)(=O)=O)cc2)c(C)s1 (centres undefined),inconclusive: 30.6%
2,COc1ccc(Cc2nnc(SCC(=O)c3ccccc3)o2)cc1,inconclusive: 34%
3,CCOc1cc(/C=C2\SC(=N)N(c3nccs3)C2=O)ccc1OCCN1CCOCC1,inactive: 1.27%
4,CCCCn1c(NCc2ccccc2O)nc2ccccc21,inactive: 3.35%
5,COc1cccc(NC(=O)CN(C)C(=O)c2cc(-c3ccccc3)nc3ccccc23)c1,inconclusive: 32.3%
6,CCN(c1ccc(OC)cc1)S(=O)(=O)c1nnc(NC(=O)c2ccccc2Cl)s1,inactive: 1.23%
7,CCOc1ccccc1OCC(=O)N/N=C(\C)Cc1ccc(OC)cc1,inactive: -3.93%
8,CN(C)/C=N/c1nc2nccc(-c3cccnc3)n2n1,inactive: -1.03%
9,O=C(NC(=S)Nc1cccc2[nH]ncc12)c1ccccc1,inactive: -2.2%
10,COc1ccccc1C1(O)CCN(C(=O)c2cccs2)CC1,inactive: -3.65%
11,O=C(Nc1ccccc1)N1CCN(C2c3ccccc3-c3ccccc32)CC1,inconclusive: 54.6%
12,Cc1ccc(CNc2ncnc3cc(Cl)ccc23)cc1,inconclusive: 45.9%
13,NC(=O)c1ccc(NC(=O)c2ccc3c(c2)CCN3S(=O)(=O)c2ccccc2)cc1,inconclusive: 62.7%
14,COC(=O)c1ccc(C(=O)NC2CCCc3c2cnn3-c2cc(F)cc(F)c2)nc1 (centres undefined),inconclusive: 39%
15,C[C@H](NC(=O)c1nc[nH]c1C(=O)NC1CCN(C(=O)OC(C)(C)C)CC1)C(=O)OCc1ccccc1,inactive: 5.96%
16,Brc1cccc(-c2cnc3n2CCCCC3)c1,inactive: -12.8%
17,O=C1CCCN1CCCNCC(=O)N1c2ccccc2Sc2ccccc21,inactive: 2.68%
18,NC1=C(Br)C(=O)c2ccccc2C1=O,inactive: -4.26%
19,Cc1ccc(CNC(=S)NC2CCCCC2)cc1,inconclusive: 62.6%
20,COC(=O)c1sc(-c2ccc(C(C)(C)C)cc2)cc1NC(=O)CSCC(=O)O,inactive: 3.78%
21,O=S(=O)(Nc1cccc2cccnc12)C1CC1,inactive: 2.66%
22,COc1ccccc1-n1cnc2cc(C(=O)NC3CCCC3)ccc21,inactive: 4.42%
23,Fc1ccccc1/C=C/c1ccc2ccccc2n1,inconclusive: 31.7%
24,CCn1c(=O)n(CC)c2cc(N3CCCC3)c(NC(=O)c3cc(Br)ccc3OC)cc21,inconclusive: 41.3%

row,SMILES,activation
1,Cc1ccc(C(=O)NCCC2=CCCCC2)cc1S(=O)(=O)N1CCOCC1,inconclusive: 31.7%
2,Cc1ccc2c(c1)-c1c(ssc1=S)C(C)(C)N2C(=O)CSc1nncn1C,inactive: 7.5%
3,COc1ccc(NC(=O)COC(=O)CCc2ccccc2)c(OC)c1,inactive: 2.48%
4,Cc1ccc(C(=O)Nc2nc3ccc(S(C)(=O)=O)cc3s2)s1,inconclusive: 63%
5,O=C(NC1CCN(Cc2ccccc2)CC1)c1ccccc1OCc1ccccc1Cl,inconclusive: 34.3%
6,COCCNC(=O)c1c(N)n(CCCn2ccnc2)c2nc3ccccc3nc12,inactive: -2.03%
7,O=C(NCc1cccs1)C1CC(=O)N(c2ccc(Cl)cc2)C1 (centres undefined),inconclusive: 43.7%
8,C=CCCCCCCCCc1nc(SCC(=O)O)n[nH]1,inactive: 1.69%
9,COc1ccc(C(=O)O/N=C(\N)Cc2ccc(Cl)cc2)cc1OC,inactive: 6.91%
10,O=C1c2ccccc2C(=O)N1CCc1nc(-c2ccccn2)no1,inactive: 0.286%
11,CC1CC1C(=O)Nc1nc(-c2ccc(Cl)s2)cs1 (centres undefined),inconclusive: 59.6%
12,CC(C)(C)c1ccc(-c2noc(CCC(=O)Nc3cccnc3)n2)cc1,inconclusive: 54.8%
13,CCOC(=O)C1=C(C)N(c2ccc(OC)cc2)C(=O)/C1=C\c1cccs1,inactive: 4.46%
14,COc1ccccc1-c1oc2ccccc2c1C#CCCO,inconclusive: 30.2%
15,O=C(NCc1cc([N+](=O)[O-])ccc1O)c1cccnc1Sc1ccccc1,inactive: -0.975%
16,CC(C)CCNC(=O)c1ccc2c(Cl)c3c(nc2c1)CCC3,inconclusive: 67.8%
17,COc1ccc(NC(=O)CCCc2nnc3n(C)c(=O)c4sccc4n23)cc1,inactive: 1.59%
18,O=c1c2sc(-c3ccccc3)cc2nc2n1CCCCC2,inconclusive: 76.9%
19,CC(C)c1ccccc1OCC(=O)NC1CCCc2ccccc21 (centres undefined),inconclusive: 31.3%
20,COc1ccc(C(=O)O/N=C(\N)c2ccccn2)cc1,inconclusive: 32.8%
21,OC1(c2ccc(F)cc2)CN(c2ccccc2)C2=[N+]1CCS2 (centres undefined),inconclusive: 64.6%
22,Cc1cccc(N(Cc2ccccc2)C(=O)c2cc(S(=O)(=O)N3CCOCC3)ccc2F)c1,inconclusive: 49.2%
23,CCCCN1C(=O)NC2NC(=O)NC21 (centres undefined),inactive: 2.79%
24,CC(C)/C=C1\CC/C(=C\c2ccc(N(C)C)cc2)C1=O,inconclusive: 79.4%

row,SMILES,activation
1,CCc1cc(C(=O)Nc2nnc(C3CC3)s2)sc1C,inconclusive: 31.1%
2,Cc1cc2nc3c(=O)n(CCc4ccccc4)c(=O)[nH]c3nc2cc1N,inconclusive: 75.3%
3,Cc1ccc(CNC(=O)CCSCc2ccc(C)cc2)cc1,inconclusive: 30.8%
4,CCOC(=O)C1CCCN(CC(=O)Nc2c(C(=O)OC)[nH]c3ccc(Br)cc23)C1 (centres undefined),inconclusive: 63.1%
5,O=C(OCCN1C(=O)c2ccccc2C1=O)c1ccccc1,inconclusive: 33.6%
6,Cn1c(=O)n(Cc2ccc(Br)cc2)c2ccccc21,inconclusive: 54.4%
7,CCOc1ccccc1-n1c(SCC(=O)N2CCOCC2)nc2ccccc2c1=O,inconclusive: 57.2%
8,Cc1ccc(NC(=O)n2ncc3c(C)cccc32)cc1F,inconclusive: 33.8%
9,CC(=O)Nc1cccc(C(=O)Nc2ccc(S(=O)(=O)N3CCCCC3)cc2)c1,inconclusive: 48.3%
10,C=CCNC(=S)N1CCN(c2cccc(C(F)(F)F)c2)CC1,inconclusive: 45.1%
11,Cc1c(OC(C)C(=O)NCc2ccccn2)ccc2c3c(c(=O)oc12)CCCC3 (centres undefined),inactive: 5.76%
12,c1ccc(SCc2nc3ccccc3[nH]2)cc1,inconclusive: 47.9%
13,COc1cccc(-c2noc(C3CCCN(C(=O)CC(C)(C)C)C3)n2)c1 (centres undefined),inactive: -4.48%
14,CC(NC(=O)Nc1ccccc1Cl)c1ccc2c(c1)OCO2 (centres undefined),inconclusive: 37%
15,S=C(NCc1ccncc1)NC1CCCC1,inconclusive: 37.7%
16,COc1cccc(NC(=O)c2oc3ccccc3c2NC(=O)C(C)(C)C)c1,inconclusive: 67%
17,CCOc1cccc(N2CCN(CCNC(=O)Nc3ccc(C)cc3)CC2)c1C,inconclusive: 35.4%
18,COc1ccc(CC(=O)NCc2ccc(-n3cccc3)cc2)cc1OC,active: 80.8%
19,Cc1cc(NC(=O)C2CCN(S(=O)(=O)Cc3ccccc3)CC2)ccc1-n1cnnn1,inconclusive: 74.1%
20,NC(=O)C1CC(=O)N(c2ccc(OCc3ccccc3Cl)cc2)C1 (centres undefined),inactive: 1.31%
21,COc1ccccc1NC(=O)C(C)OC(=O)CC1CCCCC1 (centres undefined),inconclusive: 37.2%
22,COc1ccc(C2=NCCn3c2c2ccc(C(F)(F)F)cc2[n+]3[O-])cc1,inactive: 10.4%
